Results deposited as PubChem BioAssay AID720505 (Drosophila RNAi Screening Center, 2013).
The screen tested about 20,000 reagents; below is a random part of those with a known target gene and a result. In the full data, about 2,100 (10%) got an active call. 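Raw plate signals without normalisation; calls rest on control-based scores that were not deposited; replicate 2 separates called from uncalled poorly.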 Unmarked entries are inactive. A plus sign joins genes that one reagent is predicted to hit. The record does not give: the amount of reagent, the time to read-out.

Screen: 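Fly regulators or components of the CRAC channel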 (primary screen)
System: Drosophila S2R+ cells
Knock-down reagent: long dsRNA against Drosophila genes
Challenge: thapsigargin (2 µM) in calcium-free buffer to empty internal stores, then 2 mM calcium added back
Measurement: 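Fluo-4 signal in 384-well plates read on a FLIPR after thapsigargin (2 µM, calcium-free) store depletion and 2 mM calcium add-back; unnormalised mean endpoint per well; screen run twice, selected wells retested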
Scale: calcium signal and retest calcium signal: higher = more calcium entry after store depletion
Active means: 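About 1500 genes called as lowering calcium entry, by varying amounts, judged against per-plate control wells with STIM1 as positive and Rho1 as negative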
Calls: active = called as lowering calcium entry; inactive = not called

Against Tsc1 [DRSC16890], the values are calcium signal, replicate 1 = 101; calcium signal, replicate 2 = 175.
Silencing of CG11885 [DRSC00329] came out at: calcium signal, replicate 1 = 147; calcium signal, replicate 2 = 182.
Against CG8834 [DRSC07283], the values are calcium signal, replicate 1 = 101; calcium signal, replicate 2 = 189.
Depletion of CCKLR-17D3 (Cholecystokinin-like receptor at 17D3) [DRSC20015] came out at: calcium signal, replicate 1 = 77.3; calcium signal, replicate 2 = 103.
CCKLR-17D3 (Cholecystokinin-like receptor at 17D3) [DRSC20017] scored calcium signal, replicate 1 = 71.4 (active); calcium signal, replicate 2 = 112.
Silencing of nerfin-2 (nervous fingers 2) [DRSC14547] resulted in: calcium signal, replicate 1 = 112; calcium signal, replicate 2 = 75.2.
For CG12374 [DRSC06143], the values are calcium signal, replicate 1 = 87.2; calcium signal, replicate 2 = 192.
Knock-down of Muc68E (Mucin 68E) [DRSC09146] resulted in: calcium signal, replicate 1 = 6655 (active); calcium signal, replicate 2 = 186; retest calcium signal, replicate 1 = 88.5; retest calcium signal, replicate 2 = 101.
Knock-down of lncRNA:sphinx (long non-coding RNA:sphinx) [DRSC17199] resulted in: calcium signal, replicate 1 = 71.4 (active); calcium signal, replicate 2 = 96.7.
Trf5 (TBP-related factor 5) [DRSC00412] scored calcium signal, replicate 1 = 161; calcium signal, replicate 2 = 145.
plum [DRSC16054] gave calcium signal, replicate 1 = 114; calcium signal, replicate 2 = 120.
CG6126 [DRSC15971] showed calcium signal, replicate 1 = 180; calcium signal, replicate 2 = 189.
Against Elys [DRSC19571], the entry reads calcium signal, replicate 1 = 131; calcium signal, replicate 2 = 76.7.
After knock-down of sturkopf [DRSC08637], the record shows calcium signal, replicate 1 = 141; calcium signal, replicate 2 = 139.
Silencing of CG9577 [DRSC20693] resulted in: calcium signal, replicate 1 = 68.6 (active); calcium signal, replicate 2 = 214; retest calcium signal, replicate 1 = 127; retest calcium signal, replicate 2 = 78.5.
After knock-down of eIF4E7 (eukaryotic translation initiation factor 4E7) [DRSC17782] the results were calcium signal, replicate 1 = 125; calcium signal, replicate 2 = 140.
eIF4E7 (eukaryotic translation initiation factor 4E7) [DRSC18623] showed calcium signal, replicate 1 = 118; calcium signal, replicate 2 = 117.
Cht7 + tRNA:Cys-GCA-1-4 + tRNA:Lys-CTT-1-13 [DRSC08021] scored calcium signal, replicate 1 = 6663; calcium signal, replicate 2 = 99.
For sicily (severe impairment of CI with lengthened youth) [DRSC19704], the values are calcium signal, replicate 1 = 85.1; calcium signal, replicate 2 = 86.3.
Depletion of ppk7 (pickpocket 7) [DRSC03236] gave: calcium signal, replicate 1 = 49.6 (active); calcium signal, replicate 2 = 188.
After knock-down of CG1368 [DRSC19537] the results were calcium signal, replicate 1 = 106; calcium signal, replicate 2 = 87.2.
Silencing of HP4 (Heterochromatin protein 4) [DRSC10958] gave: calcium signal, replicate 1 = 100; calcium signal, replicate 2 = 153.
After knock-down of Rpn2 (Regulatory particle non-ATPase 2) [DRSC16839], the record shows calcium signal, replicate 1 = 36.1 (active); calcium signal, replicate 2 = 60.7.
IPIP (Inositol phosphatase interacting protein) [DRSC02164] gave calcium signal, replicate 1 = 116; calcium signal, replicate 2 = 215.
After knock-down of Fife [DRSC08262], the screen gave calcium signal, replicate 1 = 65.4 (active); calcium signal, replicate 2 = 112.
With knock-down of Fife [DRSC08409], the screen gave calcium signal, replicate 1 = 90; calcium signal, replicate 2 = 107.
With knock-down of Fife [DRSC08499], the screen gave calcium signal, replicate 1 = 74.4; calcium signal, replicate 2 = 72.2.
For Nepl19 (Neprilysin-like 19) [DRSC14875], the values are calcium signal, replicate 1 = 129; calcium signal, replicate 2 = 182.
RhoGAP16F (Rho GTPase activating protein at 16F) [DRSC20025] showed calcium signal, replicate 1 = 174; calcium signal, replicate 2 = 121.
Against CG6628 [DRSC10679], the values are calcium signal, replicate 1 = 93.6; calcium signal, replicate 2 = 85.9.
Knock-down of Jon25Bi (Jonah 25Bi) [DRSC03434] came out at: calcium signal, replicate 1 = 149; calcium signal, replicate 2 = 99.6.
With knock-down of CG3581 [DRSC15499] the results were calcium signal, replicate 1 = 192; calcium signal, replicate 2 = 182.
With knock-down of CG5565 [DRSC00690], the screen gave calcium signal, replicate 1 = 192; calcium signal, replicate 2 = 142.
CG7164 [DRSC03018] showed calcium signal, replicate 1 = 102; calcium signal, replicate 2 = 136.
With knock-down of CG9098 [DRSC03136], the screen gave calcium signal, replicate 1 = 144; calcium signal, replicate 2 = 221; retest calcium signal, replicate 1 = 71.3; retest calcium signal, replicate 2 = 123.
Depletion of CG9098 [DRSC22501] gave: calcium signal, replicate 1 = 102; calcium signal, replicate 2 = 157.

Not a retest: 3 of the entries above.
Fife [DRSC08262] → calcium signal, replicate 1: 65.4 (active); calcium signal, replicate 2: 112
Fife [DRSC08409] → calcium signal, replicate 1: 90; calcium signal, replicate 2: 107
Fife [DRSC08499] → calcium signal, replicate 1: 74.4; calcium signal, replicate 2: 72.2
